Data from publication PMC9371972, “Cryo-EM structure of the human CST–Polα/primase complex in a recruitment state” (Nature Structural & Molecular Biology, 2022).
These are yes or no findings as the source states them, for the method shown. A result given as binding can be weak or reduced; the word gives no strength.

Target: T1, CTC1 (subunit of the CST complex) (human, UniProt Q2NKJ3 1-1217)
T1 construct: human CTC1; the CTC1 chain of m1; Always present with STN1 and TEN1; written alone for subunit-to-subunit contacts; source: Tni insect cells (baculovirus), purified as part of CST; not shown: His6, N-terminal, cleaved; MBP, N-terminal, cleaved
T1 sequence: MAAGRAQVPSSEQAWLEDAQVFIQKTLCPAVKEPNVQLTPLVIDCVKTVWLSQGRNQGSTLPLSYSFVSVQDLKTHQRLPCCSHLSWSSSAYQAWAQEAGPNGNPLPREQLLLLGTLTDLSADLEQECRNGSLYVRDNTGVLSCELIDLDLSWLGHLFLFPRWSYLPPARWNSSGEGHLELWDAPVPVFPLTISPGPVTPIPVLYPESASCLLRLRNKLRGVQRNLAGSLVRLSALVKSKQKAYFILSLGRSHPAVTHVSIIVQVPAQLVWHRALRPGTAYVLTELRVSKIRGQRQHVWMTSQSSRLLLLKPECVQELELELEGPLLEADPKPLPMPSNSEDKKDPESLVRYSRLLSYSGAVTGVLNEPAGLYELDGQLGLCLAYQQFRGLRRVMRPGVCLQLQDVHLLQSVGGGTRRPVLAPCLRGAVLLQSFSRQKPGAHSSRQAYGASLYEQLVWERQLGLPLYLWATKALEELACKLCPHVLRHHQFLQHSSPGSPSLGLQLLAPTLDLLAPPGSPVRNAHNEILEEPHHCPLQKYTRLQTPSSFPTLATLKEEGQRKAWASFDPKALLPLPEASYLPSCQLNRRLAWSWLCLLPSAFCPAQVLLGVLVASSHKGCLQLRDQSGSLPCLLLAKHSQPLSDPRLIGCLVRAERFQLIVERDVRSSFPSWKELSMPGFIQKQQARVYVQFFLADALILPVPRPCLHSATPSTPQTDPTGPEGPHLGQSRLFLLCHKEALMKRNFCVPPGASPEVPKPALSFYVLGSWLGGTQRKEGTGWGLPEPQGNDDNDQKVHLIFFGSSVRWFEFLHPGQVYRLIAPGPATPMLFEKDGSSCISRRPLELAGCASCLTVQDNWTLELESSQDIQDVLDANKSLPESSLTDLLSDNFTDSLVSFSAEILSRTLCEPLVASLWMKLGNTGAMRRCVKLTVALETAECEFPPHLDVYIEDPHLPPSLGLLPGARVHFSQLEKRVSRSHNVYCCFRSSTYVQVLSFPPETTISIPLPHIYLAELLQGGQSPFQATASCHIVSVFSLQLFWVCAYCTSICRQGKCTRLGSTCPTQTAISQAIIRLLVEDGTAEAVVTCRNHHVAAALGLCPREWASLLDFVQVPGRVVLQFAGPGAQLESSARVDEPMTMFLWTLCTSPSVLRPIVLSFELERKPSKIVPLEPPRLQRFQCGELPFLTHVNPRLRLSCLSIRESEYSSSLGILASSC
Test: cryo-EM structure; CST and Polα/primase (PP^FL or PP^ΔN) mixed equimolar (1.5 μM each) with (GGTTAG)3 ssDNA, cross-linked by GraFix (glutaraldehyde, glycerol gradient), 20 mM HEPES pH 7.5, 150 mM NaCl, 10 mM MgCl2, 0.5 mM TCEP; both purified

- binding: binds
Substance: POLA1^ΔN (subunit of PP^ΔN) (human) (domain or fragment)
